The supplement of paper PMC10338343
± gives the standard deviation. This is a selection; strong and weak results do not stand in their true shares. Many of these values have a large error.

system: MIWI (PIWIL1) piRISC loaded with L1MC piRNA (30 nt); assay: pre-steady-state target cleavage rate (min^-1); MIWI and MILI are mouse PIWI proteins and EfPiwi is from a freshwater sponge; tags in brackets are library labels; higher = faster piRNA-guided slicing of the target; conditions: guide: L1MC piRNA 5'p-UAACUAAAUACUAUGCAAGCUGUAGGUCCU; auxiliary factor: 500 nM mouse GTSF1
Procedure, shortened: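 A burst-and-steady-state fit was used to obtain the pre-steady-state cleavage rate. The input data were sequencing reads of uncleaved targets, normalised to depth and to weakly complementary targets, from a […] transcribed, DNA-blocked target RNA library mixed with 1 nM active affinity-purified piRISC holding one synthetic guide, with or without 500 nM GTSF1 partner protein, in HEPES–potassium acetate buffer at 33 °C for 0–8 or 0–960 min. Three trials were pooled and k3 was capped at 0.0001 min^-1.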
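Note: 1 nM active piRISC with 0.1 nM target library at 33 °C single turnover.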

| Sequence | pre-steady-state target cleavage rate |
| --- | --- |
| UCCUGGAUGUCGAACGUAAGUUAUUUAGUUA | 0.000439 ± 0.012 |
| UCCUGGAUGUCGAACGUAUGUAUUUCAGUUA | 0.000162 ± 0.032 |
| UGUGACCUACAGCUUGCAUAGUAUUUAGUUA | 1.45 ± 0.063 |
| UCGUGCUACAGCUUGCAUAGUAUUUAGUUA | 1.38 ± 0.059 |

same assay, conditions: guide: L1MC piRNA 5'p-UAACUAAAUACUAUGCAAGCUGUAGGUCCU; auxiliary factor: none (no GTSF1)

| Sequence | pre-steady-state target cleavage rate |
| --- | --- |
| UCGACCUACAGCUUGCAUAGAUAUUUAGUUA | 0.00181 ± 0.0033 |
| AGGACCUACAGCUUGCAUUGUAUUUACAAA | 0.00193 ± 0.0041 |
| UCCACCUACAGCUUGGUUAGUAUUUUCAAA | 0.000276 ± 0.009 |
| UGGUGCUACAGCUUGCAUAGUAUUUACAAA | 0.00255 ± 0.0029 |
| UCGACCUACAGCAACCAUAGUAUUUAGUUA | 0.000881 ± 0.0062 |
| UCGACCUACAGCUUGCAUACAUUUUUCAAA | 0.000353 ± 0.015 |
| UGGACCUACAGCUUCCAUAGUAUUUAGAUA | 0.000722 ± 0.0063 |
| UCGACCUACAGCAACCAUAGUAUUUAGUAA | 0.000799 ± 0.0073 |
| UCCUGGAUGUCCUUGCAAAGUAAUUAGUUA | 0.00124 ± 0.0051 |
| UCGACCUACAGCUUCCAUUGUAUUUAGUUA | 0.00216 ± 0.0025 |
| UCGACCUACAGCUUCCAUAGUAUUUAGAAA | 0.000468 ± 0.0088 |
| UCCACCUACAGCUUGCUAGUAUUUAGUUA | 0.00172 ± 0.0026 |
| UCCUGGAUGUCGAAGCAUAGUAUGUUAGUUA | 0.00117 ± 0.0058 |
| UCCACCUACAGCUUGCAUAGGUAUUUAGUUA | 0.000918 ± 0.0092 |
| UCCUGGAUGUGCAUGCAUAGUUUUUAGUUA | 0.00341 ± 0.0036 |
| UCGACCUACAGCUUGCAUAUGUAUUUAGUUA | 0.0012 ± 0.008 |
| UGGACCUACAGCUUGCAAUGUAUUUAGAAA | 0.00156 ± 0.0031 |
| UCCACCUACAGCUUGCAAUAGUAUUUAGUUA | 0.00113 ± 0.0066 |

| Sequence | pre-steady-state target cleavage rate |
| --- | --- |
| UCCUGGAUGUCGAACCAUAGUUAAAUCAAA [g10:g15:cont:t1A] | 0.000314 ± 0.022 |
| AGGACCUACAGCUUCGAUAGUAUUUAGUAA | 0.000612 ± 0.0042 |
| AGGACCUACAGCUUCCAUACUAUUUAGUUA | 0.00112 ± 0.005 |
| UCCACCUACAGCUUGCUUAGUAUUUACAAA | 0.00142 ± 0.0045 |
| UGGACCUACAGCUUGCAUAGUAAAUAGUAA | 0.00271 ± 0.0031 |
| UCGACCUACACGAUGCAUAGUAUUUAGAAA | 0.000323 ± 0.01 |
| UCGACCUACAGCUUGCUAAGUAUUUUCAAA | 0.000372 ± 0.0092 |
| UGGACCUACAGCUUGCUAUAGUAUUUAGUUA | 0.00123 ± 0.0042 |
| UGGACCUACAGCUUGCAUAGUUAUUAGAAA | 0.00123 ± 0.0054 |
| UCGACCUACAGCUUGCAUAGAUUUUAGAAA | 0.00108 ± 0.0062 |
| UGGACCUACAGCUUGGAUAGUAUUUUCAAA | 0.00151 ± 0.0033 |
| UGGACCUACAGCUUGCAUACAAUUUAGUAA | 0.00172 ± 0.0024 |
| UCGACCUACAGCUUGCAUAGAUUUUAGUAA | 0.00172 ± 0.0035 |
| UGGACCUACAGCUUGCAUUGUAUUUUCAAA | 0.00225 ± 0.003 |
| UCCUGGAUGUCGAAGCAUAGAAAUUAGUUA | 0.000232 ± 0.0084 |
| UGGACCUACAGCUUGGUUAGUAUUUUCAAA | 0.00093 ± 0.0055 |
| UCCACCUACAGCUUGCUAUCAUAAAUCAAA [g15:g27:cont:t1A] | 0.000576 ± 0.013 |
| UCGACCUACAGCUUGCAAUCUAUUUUCAAA | 0.00077 ± 0.01 |

Random excerpt: 2 records from the list, in no set order.

| Sequence | pre-steady-state target cleavage rate |
| --- | --- |
| UCCACCUACAGCUUGCUAUCAUAAAUCAAA [g15:g27:cont:t1A] | 0.000576 ± 0.013 |
| UGGACCUACAGCUUGCAUACAAUUUAGUAA | 0.00172 ± 0.0024 |
